# From publication PMC3764795
# T1: GST-tagged cytosolic PRRG4 (GST-PRRG4cyto) (human) (UniProt Q9BZD6)
# T1 sequence: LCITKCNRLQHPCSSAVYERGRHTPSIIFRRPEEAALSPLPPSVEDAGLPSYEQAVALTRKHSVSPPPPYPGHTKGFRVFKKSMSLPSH
# T2: GST-PRRG4 Y207A (human) (UniProt Q9BZD6)
# T2 sequence: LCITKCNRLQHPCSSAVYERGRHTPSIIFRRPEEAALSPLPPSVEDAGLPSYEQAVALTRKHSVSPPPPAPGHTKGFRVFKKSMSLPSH
# What was measured:
# [1] = target: T1, GST-tagged cytosolic PRRG4 (GST-PRRG4cyto) (human); assay: pull-down; GST pulldown with GST-PRRG4cyto (wild type or mutant) or GST only made in E. coli; overexpressed or endogenous proteins of cells; Western blot with anti-FLAG or antibodies against the interacting proteins; only the target purified
# GST-PRRG4 Y207A (human) = target: T2, GST-PRRG4 Y207A (human); assay: as above
# FLAG-tagged MAGI-1 = assay: co-IP; cytosolic PRRG4 co-expressed with FLAG-tagged proteins in HEK293; anti-FLAG immunoprecipitation from lysates, immunoblot with anti-PRRG4
Molecule,binding [1],binding (GST-PRRG4 Y207A (human)),binding (FLAG-tagged MAGI-1)
FLAG-tagged MAGI-1,binds,binds,–
"Cytosolic PRRG4 in a mammalian expression vector (domain or fragment, UniProt Q9BZD6 138-226) LCITKCNRLQHPCSSAVYERGRHTPSIIFRRPEEAALSPLPPSVEDAGLPSYEQAVALTRKHSVSPPPPYPGHTKGFRVFKKSMSLPSH",–,–,binds

# These are yes or no findings as the source states them, for the method shown. Binding seen in cells or lysates may run through a third protein. Binding calls can cover weak binding; strength is not graded here. For part of these data: Tags and fused reporters may be left off the sequences shown.
